Reference: PubChem BioAssay AID485314 (National Center for Advancing Translational Sciences (NCATS), 2010)
Among all 340,000 compounds or so, about 4,500 (1.3%) were called active. This list was built around the results that the source calls inconclusive (neither active nor inactive); the mix of calls is not that of the screen. The call rests on the fitted dose curve; in most records, active means well fitted inhibition curve with a large enough effect; inconclusive means small, poorly fitted or top-dose-only effect, or another doubt; inactive means no such curve, though single readings can be large or run the other way. Where the call is inconclusive, the potency comes from a doubtful curve fit.

These compounds were tested against DNA polymerase beta (Homo sapiens) (UniProt P06746) (assay: qHTS Assay for Inhibitors of DNA Polymerase Beta). Details: Pol beta primer extension/strand displacement, fluorescence kinetic; activity change, negative = inhibition: at 114 µM (top of the series).
Source text: The base excision repair system in human cells is a target for therapeutic modulation of the response to irradiation treatment and DNA-damaging drugs. A key enzyme in this system is the bi-functional DNA polymerase known as DNA polymerase Beta (Pol Beta). The following is a homogeneous kinetic assay to study the primer extension and strand-displacement reaction catalyzed by pol beta.
A stepwise description of the 1536-well assay is shown in next Table. Three microliters of reagents (buffer in column 3 and 4 as negative control and 10 nM Pol beta in columns 1, 2, and 5-48) was dispensed into 1,536-well black solid-bottomed plate. Compounds (23 nL) were transferred via Kalypsys pin tool equipped with 1536-pin array (10 nL slotted pins, V&P Scientific, San Diego, CA). The plates were incubated for 15 min at room temperature, and 1 uL substrate (50 nM final concentration) were added to start the reaction and immediately read at 0 min read on Viewlux reader. The plate were further incubated for 10 min at room temperature, and then read on Viewlux again. Throughout the screen, reagent bottle and all liquid lines were chilled and made light-tight to minimize reagent degradation. All screening operations were performed on a fully integrated robotic system (Kalypsys, San Diego, CA) containing one RX-130 and two RX-90 anthropomorphic robotic arms (Staubli, Duncan, SC). Library plates were screened starting from the lowest and proceeding to the highest concentration, and a double-dipping step of the highest concentration was required to access higher concentrations of compounds. Vehicle-only plates, with DMSO being pin-transferred to the entire column 5-48 compound area, were inserted uniformly at the beginning and the end of each library in order to monitor for and record any shifts in the background, which can be affected by reagent dispensers or loss in enzyme activity overtime. Screening data were corrected, normalized, and concentration-effect relationships were derived by using publicly-available curve fitting algorithms developed in-house (http://ncgc.nih.gov/pub/openhts). A four parameter Hill equation was fitted to the concentration-response data by minimizing the residual error between the modeled and observed responses.
On the % scale 0 is the no-effect control and ±100 the full control effect; potency means the concentration at half of the fitted maximal effect.

SMILES	Potency	activity change, negative = inhibition
CCc1nnc(NS(=O)(=O)c2ccc(N/C=C(\C=O)c3nc4cc(Cl)ccc4o3)cc2)s1	inconclusive: 39.8 µM [inhibitor, full curve]	–
O=C(O)c1cc(NC(=O)c2ccc(Br)cc2)cc(NC(=O)c2ccc(Br)cc2)c1	inconclusive: 20 µM [inhibitor, partial curve]	–
CC(C)(C)CC(C)(C)c1ccc(OCC(=O)N/N=C/c2ccc(S(=O)(=O)O)o2)cc1	–	inconclusive: -159% [inhibitor]
Cc1ccc(S(=O)(=O)Oc2ccc(/C=C3\C(=N)N4N=C(S(C)(=O)=O)SC4=NC3=O)cc2)cc1	inconclusive: 70.8 µM [inhibitor, single point]	–
O=C(Nc1ccc(C(=O)O)cc1)/C(=C\C=C\c1ccccc1)NC(=O)c1cccc(Br)c1	inconclusive: 89.1 µM [inhibitor, single point]	–
COc1cc(/C=C2\C(=N)N3N=C(S(C)(=O)=O)SC3=NC2=O)ccc1OS(=O)(=O)c1ccccc1	inconclusive: 7.94 µM [inhibitor, partial curve]	–
CS(=O)(=O)C1=NSC2=NC(=O)/C(=C\c3ccc(OC(=O)c4ccco4)c(Br)c3)C(=N)N21	–	inconclusive: -31.8% [inhibitor]
O=C(O)COc1ccccc1/C=N/NC(=O)CSc1nnc(SCc2cccc3ccccc23)s1	–	inconclusive: -36.3% [inhibitor]
COc1cc(/C=C2\C(=N)N3N=C(S(C)(=O)=O)SC3=NC2=O)cc(OC)c1OCCOc1cccc(C)c1	–	inconclusive: -37.5% [inhibitor]
O=C1NN(c2ccc(F)c(Cl)c2)C(=O)/C1=C\c1cccc(OC(=O)c2cccs2)c1	inconclusive: 79.4 µM [inhibitor, partial curve, poor fit]	–
CCS(=O)(=O)C1=NN2C(=N)/C(=C\c3ccc(OS(=O)(=O)c4ccccc4)c(OC)c3)C(=O)N=C2S1	inconclusive: 50.1 µM [inhibitor, single point]	–
COc1cccc(C2C3=C(N=c4s/c(=C\c5ccc(OCC(=O)O)cc5)c(=O)n42)c2ccccc2CC3)c1 (stereo unspecified)	inconclusive: 89.1 µM [inhibitor, single point]	–
CCOc1cc(/C=C2/C(=N)N3C(=NC2=O)SN=C3S(C)(=O)=O)ccc1OS(=O)(=O)c1ccccc1	inconclusive: 70.8 µM [inhibitor, single point]	–
Cc1cc(N2C(=O)C(O)=C(C(=O)c3cc4ccccc4o3)C2c2cccc(Br)c2)no1 (stereo unspecified)	inconclusive: 2 µM [inhibitor, single point]	–
COc1cc(/C=C2/C(=O)NN(c3ccc(Cl)cc3)C2=O)cc(Br)c1O	inconclusive: 14.1 µM [inhibitor, single point]	–
Cc1ccccc1N/N=C/c1sc(=O)n(Cc2cccc(C(=O)O)c2)c1Cl	–	inconclusive: -91.7% [inhibitor]

Two entries from above in another layout.
COc1cc(/C=C2\C(=N)N3N=C(S(C)(=O)=O)SC3=NC2=O)ccc1OS(=O)(=O)c1ccccc1
  Potency: inconclusive: 7.94 µM [inhibitor, partial curve]
CS(=O)(=O)C1=NSC2=NC(=O)/C(=C\c3ccc(OC(=O)c4ccco4)c(Br)c3)C(=N)N21
  activity change, negative = inhibition: inconclusive: -31.8% [inhibitor]
